In the supplement of paper PMC12823440, “Inhibitors supercharge kinase turnover through native proteolytic circuits” (Nature, 2025):
Counter-ions that a name gives are not always drawn. The list shows a part of the results. Hit calls seldom repeat between salt and free forms of one compound.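 Kinases, fused to nanoluciferase, were expressed in K562 cells; luminescence was measured every 4 h from 2 to 18 h as percent of control (DMSO = 100%, positive control = 0%). A time point is decreased if signal falls significantly (2 sigma). Hits were called by the authors by a rule that is not shown; the count of time points alone does not decide it.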

Amino acid sequences for entries named in this document (tags omitted). A change or cut given only in a name is not applied to a line headed by its entry.
UniProt Q05397, whole entry, looked up: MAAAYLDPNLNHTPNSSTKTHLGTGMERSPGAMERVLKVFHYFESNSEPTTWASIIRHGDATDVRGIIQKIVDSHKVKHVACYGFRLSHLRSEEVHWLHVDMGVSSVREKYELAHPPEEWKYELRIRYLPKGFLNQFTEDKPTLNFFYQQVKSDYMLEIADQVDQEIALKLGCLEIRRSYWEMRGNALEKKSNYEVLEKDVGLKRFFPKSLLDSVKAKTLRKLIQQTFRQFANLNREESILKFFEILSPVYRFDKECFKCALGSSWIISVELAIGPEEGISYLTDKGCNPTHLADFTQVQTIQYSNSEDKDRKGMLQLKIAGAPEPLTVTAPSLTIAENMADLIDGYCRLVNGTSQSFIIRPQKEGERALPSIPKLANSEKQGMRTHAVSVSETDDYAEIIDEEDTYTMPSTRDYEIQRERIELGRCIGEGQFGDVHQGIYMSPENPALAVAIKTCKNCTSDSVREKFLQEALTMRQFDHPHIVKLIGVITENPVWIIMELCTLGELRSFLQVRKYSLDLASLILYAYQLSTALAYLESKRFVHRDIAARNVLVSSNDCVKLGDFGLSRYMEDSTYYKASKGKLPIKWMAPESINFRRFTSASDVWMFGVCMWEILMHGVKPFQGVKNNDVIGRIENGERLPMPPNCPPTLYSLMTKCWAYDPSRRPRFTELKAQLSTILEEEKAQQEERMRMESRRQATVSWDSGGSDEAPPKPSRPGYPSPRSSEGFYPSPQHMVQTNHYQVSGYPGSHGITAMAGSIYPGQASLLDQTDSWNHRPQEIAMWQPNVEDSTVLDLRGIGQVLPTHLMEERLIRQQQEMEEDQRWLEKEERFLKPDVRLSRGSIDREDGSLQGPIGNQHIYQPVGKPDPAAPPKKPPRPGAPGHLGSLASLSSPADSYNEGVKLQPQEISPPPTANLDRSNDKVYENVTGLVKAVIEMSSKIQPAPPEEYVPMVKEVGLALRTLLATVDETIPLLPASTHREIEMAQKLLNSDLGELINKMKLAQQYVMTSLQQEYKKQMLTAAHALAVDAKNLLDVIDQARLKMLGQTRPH
UniProt Q14289, whole entry, looked up: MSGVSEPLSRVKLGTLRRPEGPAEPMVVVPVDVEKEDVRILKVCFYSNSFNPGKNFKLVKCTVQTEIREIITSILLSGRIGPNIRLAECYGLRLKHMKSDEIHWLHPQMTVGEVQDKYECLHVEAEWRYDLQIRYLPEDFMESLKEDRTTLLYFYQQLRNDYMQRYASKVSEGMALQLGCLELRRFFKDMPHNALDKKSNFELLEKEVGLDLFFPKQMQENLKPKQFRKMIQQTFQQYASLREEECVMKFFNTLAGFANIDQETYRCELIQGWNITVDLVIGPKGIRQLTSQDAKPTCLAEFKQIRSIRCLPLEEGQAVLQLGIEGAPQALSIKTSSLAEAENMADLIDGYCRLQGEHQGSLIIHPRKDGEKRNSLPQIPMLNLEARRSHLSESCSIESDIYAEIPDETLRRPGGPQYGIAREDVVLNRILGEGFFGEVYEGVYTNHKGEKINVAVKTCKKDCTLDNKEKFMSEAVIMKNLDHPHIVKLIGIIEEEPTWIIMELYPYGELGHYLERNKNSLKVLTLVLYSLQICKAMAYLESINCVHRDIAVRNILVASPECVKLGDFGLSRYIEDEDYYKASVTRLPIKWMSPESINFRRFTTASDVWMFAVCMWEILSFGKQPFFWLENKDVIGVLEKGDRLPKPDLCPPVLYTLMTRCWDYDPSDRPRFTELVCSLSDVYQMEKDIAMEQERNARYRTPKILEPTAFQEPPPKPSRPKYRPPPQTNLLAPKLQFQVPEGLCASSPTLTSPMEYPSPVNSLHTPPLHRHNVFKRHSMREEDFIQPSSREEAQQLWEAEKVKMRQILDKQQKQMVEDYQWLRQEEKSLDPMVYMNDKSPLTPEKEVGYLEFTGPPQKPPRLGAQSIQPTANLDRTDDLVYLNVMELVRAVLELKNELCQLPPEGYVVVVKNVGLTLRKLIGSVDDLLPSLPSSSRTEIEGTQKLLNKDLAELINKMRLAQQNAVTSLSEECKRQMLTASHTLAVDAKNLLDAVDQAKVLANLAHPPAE
UniProt P07949, whole entry, looked up: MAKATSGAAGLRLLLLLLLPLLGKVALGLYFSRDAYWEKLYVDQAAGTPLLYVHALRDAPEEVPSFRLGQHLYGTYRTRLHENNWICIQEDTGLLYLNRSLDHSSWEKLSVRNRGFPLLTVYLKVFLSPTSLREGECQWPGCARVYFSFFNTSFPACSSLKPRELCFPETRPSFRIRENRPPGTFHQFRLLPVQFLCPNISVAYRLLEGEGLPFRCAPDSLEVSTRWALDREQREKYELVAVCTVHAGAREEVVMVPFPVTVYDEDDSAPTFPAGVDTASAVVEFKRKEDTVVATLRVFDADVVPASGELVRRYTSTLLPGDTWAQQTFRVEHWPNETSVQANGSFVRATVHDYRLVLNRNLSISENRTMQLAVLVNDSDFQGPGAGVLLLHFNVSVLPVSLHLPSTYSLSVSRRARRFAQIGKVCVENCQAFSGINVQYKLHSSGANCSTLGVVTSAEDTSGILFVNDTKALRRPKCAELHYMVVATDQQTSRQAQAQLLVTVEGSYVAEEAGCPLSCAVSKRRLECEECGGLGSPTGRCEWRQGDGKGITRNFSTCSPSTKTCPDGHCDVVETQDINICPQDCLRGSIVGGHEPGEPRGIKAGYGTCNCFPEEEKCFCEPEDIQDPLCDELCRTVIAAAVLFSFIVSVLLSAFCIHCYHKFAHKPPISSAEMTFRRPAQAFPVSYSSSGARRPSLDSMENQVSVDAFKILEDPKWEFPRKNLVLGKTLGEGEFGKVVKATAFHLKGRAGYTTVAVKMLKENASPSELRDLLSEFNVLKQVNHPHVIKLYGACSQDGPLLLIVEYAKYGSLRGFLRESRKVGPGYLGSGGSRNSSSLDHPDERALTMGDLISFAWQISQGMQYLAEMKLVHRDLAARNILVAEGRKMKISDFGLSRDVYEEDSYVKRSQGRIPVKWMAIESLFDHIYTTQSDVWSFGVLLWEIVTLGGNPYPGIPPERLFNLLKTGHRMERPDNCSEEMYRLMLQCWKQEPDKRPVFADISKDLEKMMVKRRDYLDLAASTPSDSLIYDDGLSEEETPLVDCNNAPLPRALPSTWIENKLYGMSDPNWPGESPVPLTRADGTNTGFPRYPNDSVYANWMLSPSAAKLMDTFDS
UniProt P07949, whole entry M918T, looked up: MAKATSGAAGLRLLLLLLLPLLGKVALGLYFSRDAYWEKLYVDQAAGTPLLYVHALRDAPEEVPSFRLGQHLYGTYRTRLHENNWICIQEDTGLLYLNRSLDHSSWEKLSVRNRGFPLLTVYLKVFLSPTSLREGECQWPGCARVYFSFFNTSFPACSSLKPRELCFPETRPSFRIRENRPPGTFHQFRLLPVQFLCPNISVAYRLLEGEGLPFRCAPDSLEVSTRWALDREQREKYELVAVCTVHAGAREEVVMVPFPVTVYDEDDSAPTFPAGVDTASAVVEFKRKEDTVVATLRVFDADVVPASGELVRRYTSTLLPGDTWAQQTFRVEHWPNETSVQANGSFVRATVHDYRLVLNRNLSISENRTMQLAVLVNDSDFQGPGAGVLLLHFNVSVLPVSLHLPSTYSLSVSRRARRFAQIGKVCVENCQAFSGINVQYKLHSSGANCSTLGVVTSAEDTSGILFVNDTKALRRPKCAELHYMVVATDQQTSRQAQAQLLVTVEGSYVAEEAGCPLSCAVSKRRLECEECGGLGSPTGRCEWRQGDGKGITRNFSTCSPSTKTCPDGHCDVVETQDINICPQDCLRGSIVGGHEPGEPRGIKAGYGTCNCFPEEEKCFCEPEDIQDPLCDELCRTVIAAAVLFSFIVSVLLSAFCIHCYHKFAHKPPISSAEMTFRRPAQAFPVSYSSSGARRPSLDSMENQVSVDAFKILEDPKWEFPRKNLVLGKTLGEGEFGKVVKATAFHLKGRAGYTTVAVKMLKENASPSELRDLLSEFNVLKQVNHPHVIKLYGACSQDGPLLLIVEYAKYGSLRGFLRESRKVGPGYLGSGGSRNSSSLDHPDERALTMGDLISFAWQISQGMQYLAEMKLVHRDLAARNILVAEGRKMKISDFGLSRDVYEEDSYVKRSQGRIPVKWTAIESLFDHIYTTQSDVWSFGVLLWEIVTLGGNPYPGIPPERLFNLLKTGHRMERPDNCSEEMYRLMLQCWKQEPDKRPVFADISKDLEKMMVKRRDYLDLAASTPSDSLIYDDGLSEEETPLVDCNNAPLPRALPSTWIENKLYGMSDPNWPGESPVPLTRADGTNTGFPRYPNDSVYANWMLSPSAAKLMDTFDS
UniProt Q9BRS2: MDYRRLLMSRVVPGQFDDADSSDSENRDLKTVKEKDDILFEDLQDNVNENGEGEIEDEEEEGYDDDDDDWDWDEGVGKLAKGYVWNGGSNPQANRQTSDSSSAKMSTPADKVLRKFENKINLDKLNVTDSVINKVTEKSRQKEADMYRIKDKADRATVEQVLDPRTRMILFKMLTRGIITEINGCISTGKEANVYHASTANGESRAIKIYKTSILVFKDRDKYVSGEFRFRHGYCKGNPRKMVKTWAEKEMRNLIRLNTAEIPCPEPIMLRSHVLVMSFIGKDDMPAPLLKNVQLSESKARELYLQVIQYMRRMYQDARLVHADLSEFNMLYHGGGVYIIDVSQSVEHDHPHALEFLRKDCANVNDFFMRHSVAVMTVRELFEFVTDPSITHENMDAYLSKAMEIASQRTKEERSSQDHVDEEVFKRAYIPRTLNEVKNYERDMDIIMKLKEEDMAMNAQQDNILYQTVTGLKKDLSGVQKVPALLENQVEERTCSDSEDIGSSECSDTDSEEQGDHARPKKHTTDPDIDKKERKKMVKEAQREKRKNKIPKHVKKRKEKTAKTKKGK
UniProt Q13546: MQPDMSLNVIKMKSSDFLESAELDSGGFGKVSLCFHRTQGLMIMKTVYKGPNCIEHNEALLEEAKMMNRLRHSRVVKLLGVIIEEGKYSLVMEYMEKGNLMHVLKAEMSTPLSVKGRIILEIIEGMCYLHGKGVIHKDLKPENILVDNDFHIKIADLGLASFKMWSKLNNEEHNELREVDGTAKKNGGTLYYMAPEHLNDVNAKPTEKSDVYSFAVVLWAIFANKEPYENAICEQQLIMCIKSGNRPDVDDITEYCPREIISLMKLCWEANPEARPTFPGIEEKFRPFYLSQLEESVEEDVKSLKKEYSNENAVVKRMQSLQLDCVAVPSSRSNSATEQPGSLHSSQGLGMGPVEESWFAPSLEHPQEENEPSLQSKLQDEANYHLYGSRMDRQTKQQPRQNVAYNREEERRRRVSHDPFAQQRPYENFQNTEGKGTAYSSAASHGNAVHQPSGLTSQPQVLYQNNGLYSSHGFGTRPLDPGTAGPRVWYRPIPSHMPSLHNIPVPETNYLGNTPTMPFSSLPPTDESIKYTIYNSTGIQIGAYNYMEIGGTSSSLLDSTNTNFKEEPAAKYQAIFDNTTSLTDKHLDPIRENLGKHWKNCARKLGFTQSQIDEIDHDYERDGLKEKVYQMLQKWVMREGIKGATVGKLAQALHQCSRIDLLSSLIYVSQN

Columns and labels:
Test in all cases: number of time points (of 5) at which kinase-Nluc abundance scored as decreased, DMSO-normalised (count); higher = more persistent destabilization
Conditions in all cases: K562; 2-18 h
PRKCA = PRKCA (UniProt P17252)
PTK2 = PTK2 (UniProt Q05397)
PTK2B = PTK2B (UniProt Q14289)
RAF1 = RAF1 (UniProt P04049)
[1] = target: RAF1_S257L (clone: RAF1_mut) (UniProt P04049)
RET = RET (UniProt P07949)
[2] = target: RET_M918T (clone: RET_mut) (UniProt P07949)
RIOK1 = RIOK1 (UniProt Q9BRS2)
RIPK1 = RIPK1 (UniProt Q13546)
RIPK2 = RIPK2 (UniProt O43353)

Compound | number of time points (PRKCA) | number of time points (PTK2) | number of time points (PTK2B) | number of time points (RAF1) | number of time points [1] | number of time points (RET) | number of time points [2] | number of time points (RIOK1) | number of time points (RIPK1) | number of time points (RIPK2)
Oc1c(F)cc(-c2cnccc2-c2ccc(N3CCOCC3)cc2)cc1F (10 µM) | 0 | 0 | 0 | 0 | 0 | 0 | 0 | 0 | 0 | 0
Cc1cc(C(=O)Nc2nc3cccc(Cl)c3n2[C@@H]2CCCCN(C(=O)/C=C/CN(C)C)C2)ccn1 [Nazartinib] (10 µM) | 0 | 0 | 0 | 0 | 0 | 0 | 0 | 0 | 0 | 0
COc1cc2nccc(Oc3ccc(NC(=O)c4cn(C(C)C)c(=O)n(-c5ccc(F)cc5)c4=O)cc3F)c2cc1OC (0.5 µM) | 0 | 3 | 0 | 0 | 0 | 0 | 0 | 0 | 0 | 0
CC(C)CCN1c2nc(Nc3cc(F)c(O)c(F)c3)ncc2N(C)C(=O)C1C (stereo not given) (2.5 µM) | 1 | 0 | 0 | 0 | 0 | 0 | 0 | 0 | 0 | 0
CCN1CCN(Cc2cnc(Nc3cc(-c4cc(F)c5nc(C)n(C(C)C)c5c4)c(F)cn3)nc2)CC1 (10 µM) | 0 | 0 | 0 | 0 | 1 | 0 | 0 | 0 | 0 | 0
O=C1OC(/C=C/c2ccccc2)=NC/1=C\c1cccnc1 (10 µM) | 0 | 0 | 0 | 0 | 0 | 0 | 0 | 0 | 0 | 0
COc1cc(-c2oc3cc(O)cc(O)c3c(=O)c2O)ccc1O [Isorhamnetin] (10 µM) | 0 | 0 | 0 | 0 | 0 | 0 | 0 | 0 | 0 | 0
COc1cc(-c2cc(-c3ccc(N4CCNCC4)cc3)cnc2C)cc(OC)c1OC (10 µM) | 0 | 0 | 0 | 0 | 0 | 0 | 0 | 0 | 0 | 0
COc1cc2ncnc(Nc3ccc(O)c(Br)c3)c2cc1OC (10 µM) | 0 | 0 | 0 | 0 | 0 | 0 | 0 | 0 | 0 | 0
N#Cc1cnc2c(Cl)cc(NCc3cn(CCN4CCCCCC4)nn3)cc2c1Nc1ccc(F)c(Cl)c1 [Cot inhibitor-1] (10 µM) | 0 | 0 | 0 | 0 | 0 | 1 | 0 | 0 | 0 | 0
CNC(=O)CNc1cnc2ccc(-c3ccc(OC)c(OC)c3)cc2n1 (10 µM) | 0 | 0 | 0 | 0 | 0 | 0 | 0 | 0 | 0 | 0
N#Cc1ccc(-c2cnc3ccc(-c4ccc(C(=O)N5CCOCC5)cc4)cn23)cc1 (10 µM) | 0 | 0 | 0 | 0 | 0 | 0 | 0 | 0 | 0 | 0
NC(=O)c1ccc(N(C(N)=O)c2c(F)cccc2F)nc1-c1ccc(F)cc1F (10 µM) | 0 | 0 | 0 | 0 | 0 | 0 | 0 | 0 | 0 | 0
NS(=O)(=O)c1ccc(Nc2nc(-c3cccc(-c4ccccc4)c3)c3[nH]cnc3n2)cc1 (10 µM) | 0 | 0 | 0 | 0 | 0 | 0 | 0 | 0 | 0 | 0
COC(=O)[C@H](CCSC)NC(=O)c1ccc(NC[C@@H](N)CS)cc1-c1ccccc1 [FTI-277 (hydrochloride)] (10 µM) | 0 | 0 | 0 | 0 | 0 | 0 | 0 | 0 | 0 | 0
O=C(Nc1cc(Cl)cc2c1[nH]c1cnccc12)c1cccnc1 (10 µM) | 0 | 0 | 0 | 0 | 0 | 0 | 0 | 0 | 0 | 0
Cc1cc(C(=O)NC(C)(C)C)cc(C#Cc2ccc3c4c(oc3c2)C(C)(C)c2cc(NS(C)(=O)=O)ccc2C4=O)n1 (10 µM) | 0 | 0 | 0 | 0 | 0 | 0 | 0 | 0 | 0 | 0
COc1c(O)cc2oc(-c3ccc(O)cc3)cc(=O)c2c1O [Hispidulin] (10 µM) | 0 | 0 | 0 | 0 | 0 | 0 | 0 | 0 | 0 | 0

Compound | number of time points (PRKCA) | number of time points (PTK2) | number of time points (PTK2B) | number of time points (RAF1) | number of time points [1] | number of time points (RET) | number of time points [2] | number of time points (RIOK1) | number of time points (RIPK1) | number of time points (RIPK2)
Cc1cnc(NC(=O)c2cc(Oc3cnc(C(=O)N(C)C)nc3)c3cc(C)oc3c2)cn1 (10 µM) | 0 | 0 | 0 | 0 | 0 | 0 | 0 | 0 | 0 | 0
Nc1nc(NCCNc2ncc(-n3ccnc3)c(-c3ccc(Cl)cc3Cl)n2)ccc1[N+](=O)[O-] (2.5 µM) | 0 | 0 | 0 | 0 | 0 | 0 | 0 | 0 | 0 | 0
Cc1cccc(/C=N/Nc2cc(N3CCOCC3)n3nc(-c4ccncc4)cc3n2)c1 (10 µM) | 1 | 0 | 0 | 0 | 0 | 0 | 0 | 0 | 0 | 0
CC(C)n1c([C@H](C)Nc2ncnc(N)c2C#N)cc2cccc(-c3ccc(=O)n(C)c3)c2c1=O (10 µM) | 0 | 0 | 0 | 0 | 3 | 0 | 0 | 0 | 0 | 0
Cn1c2cc([S+](C)[O-])sc2c2cnn(Cc3cccc(N)c3)c(=O)c21 (stereo not given) (2.5 µM) | 0 | 0 | 0 | 0 | 0 | 0 | 0 | 0 | 0 | 0
CO[C@H]1CC[C@H](N2C(=O)CNc3ncc(-c4ccc(C(C)(C)O)nc4)nc32)CC1 (2.5 µM) | 0 | 0 | 0 | 0 | 0 | 0 | 0 | 0 | 0 | 0
Cc1cc(Nc2cc(N3CCN(C)CC3)nc(Nc3ccc([N+](=O)[O-])cc3)n2)n[nH]1 (2.5 µM) | 0 | 3 | 0 | 2 | 0 | 0 | 0 | 0 | 0 | 0
CC1=C(C(=O)Nc2cc3cn[nH]c3cc2F)C(c2ccc(C(F)(F)F)cc2)CC(=O)N1 (stereo not given) (10 µM) | 0 | 0 | 0 | 0 | 0 | 0 | 0 | 0 | 0 | 0
N#Cc1ccc2ncnc(NCCc3ccccc3)c2c1 [Senexin A] (10 µM) | 0 | 0 | 0 | 0 | 0 | 0 | 0 | 0 | 0 | 0
COc1ccc(-c2cc(=O)c3c(OC)cc(OC)c(OC)c3o2)cc1 [6-Demethoxytangeretin] (10 µM) | 0 | 0 | 0 | 0 | 0 | 0 | 0 | 0 | 0 | 0
CC(C)=CC[C@@H](O)C1=CC(=O)c2c(O)ccc(O)c2C1=O [Shikonin] (10 µM) | 0 | 0 | 0 | 0 | 0 | 0 | 0 | 0 | 0 | 0
Nc1ncc(-c2ccnc(Nc3ccncc3)n2)c(CC2CC2)n1 (10 µM) | 0 | 0 | 0 | 2 | 1 | 0 | 0 | 0 | 1 | 0
CC(C)=CCC/C(C)=C/CC/C(C)=C/C=C/C(C)=C/C(=O)O [Peretinoin] (10 µM) | 0 | 0 | 0 | 0 | 0 | 0 | 0 | 0 | 0 | 0
O=c1cc(N2CCOCC2)oc2c(-c3ccc4c(c3)OCCO4)csc12 (2.5 µM) | 0 | 0 | 0 | 0 | 0 | 0 | 0 | 0 | 0 | 0
c1nn(C2CCOCC2)cc1Nc1ncc2nnn(-c3ccc4cn[nH]c4c3)c2n1 (10 µM) | 0 | 0 | 0 | 0 | 0 | 0 | 0 | 0 | 0 | 0
C[C@@H](Nc1ncnc2[nH]c(-c3ccc(O)cc3)cc12)c1ccccc1 (2.5 µM) | 0 | 0 | 0 | 0 | 0 | 0 | 0 | 0 | 0 | 0
NC(=O)c1cnc(-c2ccc(C3(N)CCC3)cc2)c(-c2ccccc2)c1 (10 µM) | 0 | 0 | 0 | 0 | 0 | 0 | 0 | 0 | 0 | 0

Seven entries from above, sorted by length of the SMILES, falling:
Compound | number of time points (PRKCA) | number of time points (PTK2) | number of time points (PTK2B) | number of time points (RAF1) | number of time points [1] | number of time points (RET) | number of time points [2] | number of time points (RIOK1) | number of time points (RIPK1) | number of time points (RIPK2)
Nc1nc(NCCNc2ncc(-n3ccnc3)c(-c3ccc(Cl)cc3Cl)n2)ccc1[N+](=O)[O-] (2.5 µM) | 0 | 0 | 0 | 0 | 0 | 0 | 0 | 0 | 0 | 0
Cc1cc(Nc2cc(N3CCN(C)CC3)nc(Nc3ccc([N+](=O)[O-])cc3)n2)n[nH]1 (2.5 µM) | 0 | 3 | 0 | 2 | 0 | 0 | 0 | 0 | 0 | 0
CO[C@H]1CC[C@H](N2C(=O)CNc3ncc(-c4ccc(C(C)(C)O)nc4)nc32)CC1 (2.5 µM) | 0 | 0 | 0 | 0 | 0 | 0 | 0 | 0 | 0 | 0
Cc1cccc(/C=N/Nc2cc(N3CCOCC3)n3nc(-c4ccncc4)cc3n2)c1 (10 µM) | 1 | 0 | 0 | 0 | 0 | 0 | 0 | 0 | 0 | 0
Cn1c2cc([S+](C)[O-])sc2c2cnn(Cc3cccc(N)c3)c(=O)c21 (stereo not given) (2.5 µM) | 0 | 0 | 0 | 0 | 0 | 0 | 0 | 0 | 0 | 0
C[C@@H](Nc1ncnc2[nH]c(-c3ccc(O)cc3)cc12)c1ccccc1 (2.5 µM) | 0 | 0 | 0 | 0 | 0 | 0 | 0 | 0 | 0 | 0
Nc1ncc(-c2ccnc(Nc3ccncc3)n2)c(CC2CC2)n1 (10 µM) | 0 | 0 | 0 | 2 | 1 | 0 | 0 | 0 | 1 | 0
